System: cortical neurons
Test: Inhibition of [Ca2+]i increases evoked by acidosis (pH 6.0) in cortical neurons
Assay type: cell-based, rat
Conditions: acidosis pH 6.0, cortical neurons, n>50
Method: Concentration-response relationship for p-Br-DPG and DTG inhibition of [Ca^2+]i increases evoked by acidosis (pH 6.0).
The effects of sigma receptors on ischemia-induced changes in intracellular calcium concentrations were studied in cultured cortical neurons from embryonic (E18) rats. Dams were euthanatized by decapitation, uterus removed, and embryos dissected out and placed in isotonic buffer containing 137 mM NaCl, 5 mM KCl, 0.2 mM NaH2PO4, 0.2 mM KH2PO4, 5.5 mM glucose, 6 mM sucrose (pH 7.4 with NaOH). Cortex were excised and minced, and tissue digested in isotonic buffer containing 0.25% trypsin/EDTA for 10 min at 37° C. and added to 3× volume of high glucose culture media (Dulbecco's Modified Eagle Media; Invitrogen, Inc., Carlsbad, Calif.), 10% (v/v) fetal calf serum, 100 U/ml penicillin and 0.1 mg/ml streptomycin. Cells were counted on a hemocytometer, plated (0.5×10^6 cells) on 18 mm coverslips coated with poly-1-lysine, and incubated at 37° C. under a 95% air, 5% CO2 atmosphere. After 24 hr the media was replaced with Neurobasal (Invitrogen, Inc., Carlsbad, Calif.) medium supplemented with B27 (Invitrogen, Inc., Carlsbad, Calif.) and 0.5 mM 1-glutamine to limit astrocyte proliferation in the cultures. Cells were used for studies after 14-21 days in culture. […]

| SMILES | Hill coefficient for inhibition of [Ca2+]i increases evoked by acidosis |
| --- | --- |
| Cc1ccccc1NC(=N)Nc1ccccc1C [DTG, N,N′-di-o-tolyl guanidine, reference compound] | 0.9 |
| N=C(Nc1ccc(Br)cc1)Nc1ccc(Br)cc1 [p-Br-DPG, N,N′-di-p-bromophenyl guanidine] | 1.2 |
